PMC10960409
These are yes or no findings as the source states them, for the method shown. For part of these data: In cells and extracts the contact can be indirect. Some results given as binding are weak or reduced against the parent protein; the word gives no strength. Tags and fused reporters may be left off the sequences shown. Each block holds one binder with its values, some of them ahead of it.

Key:
[1] = molecular target: T1, OsMYB30C (yeast two-hybrid bait fusion) (rice) (UniProt Q6K1S6); test: two-hybrid; OsPCF5 in prey vector pGAD-T7, MYB in bait vector pGBK-T7, yeast AH109; growth on SD-Leu-Trp-His-Ade with 5 mM 3-AT
T1 sequence: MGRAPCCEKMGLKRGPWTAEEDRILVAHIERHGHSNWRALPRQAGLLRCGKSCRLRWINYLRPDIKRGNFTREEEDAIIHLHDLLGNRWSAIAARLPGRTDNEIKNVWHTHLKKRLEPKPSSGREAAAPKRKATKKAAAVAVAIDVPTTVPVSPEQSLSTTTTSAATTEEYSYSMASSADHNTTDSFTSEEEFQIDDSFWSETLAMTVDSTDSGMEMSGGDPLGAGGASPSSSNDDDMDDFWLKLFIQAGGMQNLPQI

[2] = molecular target: T2, nYFP-OsMYB30C (rice) (UniProt Q6K1S6); test: split reporter; BiFC, nYFP-OsMYBs and OsPCF5-cYFP co-infiltrated into N. benthamiana leaves, confocal microscopy after 48 h
T2 sequence: T1 sequence

[3] = molecular target: T3, OsMYB30C (luciferase complementation fusion) (rice) (UniProt Q6K1S6); test: split reporter; luciferase complementation assay (LCA), NLuc and CLuc fusions co-infiltrated into N. benthamiana leaves, signal read 48 h after infiltration
T3 sequence: T1 sequence

binding [1]: binds
B1: OsPCF5 (yeast two-hybrid prey fusion) (protein, UniProt Q8LT07 1-458)
chain: MGDAGGHSHHHQHGFQPQLLSFGGVGHHHHLHQFTAQPQPPAASHTRGRGGGGEIVPATTTPRSRGGGGGGGGEIVAVQGGHIVRSTGRKDRHSKVCTARGPRDRRVRLSAHTAIQFYDVQDRLGYDRPSKAVDWLIKNAKDAIDKLDVLPAWQPTAGGAGAGNAAAPPSSSTHPDSAENSDDQAQAITVAHTAFDFAGGGSGGTSFLPPSLDSDAIADTIKSFFPMGGTAGGEASSSTTAAQSSAMGFQSYTPDLLSRTGSQSQELRLSLQSLPDPMFHHQQHRHGGGGGGGNGTTQQALFSGAANYSFGGGAMWATEQQAQNQRMLPWNVPDPGGGGGAAYLFNVSQQAAHMQAAAAALGGHQSQFFFQRGPLQSSNQPSERGWPETVEADNQMSHHQGGLSPSVSAAIGFAAPGIGFSGFRLPARIQGDEEHNGGGGGNGDKPPPPSSVSSASHH

binding [2]: binds
B2: OsPCF5-cYFP (protein, UniProt Q8LT07 1-458)
chain: B1 chain

binding [3]: binds
B3: OsPCF5 (luciferase complementation fusion) (protein, UniProt Q8LT07 1-458)
chain: B1 chain
